Values from PubChem BioAssay AID1671195 (Yale University, 2021).

- Screen: 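Regulators of LDL receptor activity judged by labelled LDL uptake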 (primary screen)
- System: human Huh7 hepatoma cells
- Reagent: siRNA pool against human genes, 18 nM
- Time to read-out: about 2 to 2.5 days of knockdown, then 8 h LDL uptake
- Treatment: DiI-labelled LDL at 30 µg/ml for 8 h, in lipoprotein-deficient serum medium
- Measurement: 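Per-cell DiI-LDL intensity by automated imaging; well means scaled to the plate median and given as a robust z-score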
- Reading the numbers: robust z-score: higher = more LDL uptake after knockdown
- Active means: 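Active when two or more replicates show a robust z-score above 2 or below -2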
The whole screen tested about 22,000 reagents; shown is an unselected part. Of all reagents, about 1,510 (6.9%) are marked active. 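Active includes knockdowns raising or lowering LDL uptake; positive z-scores mean more uptake, negative mean less.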 Reagent sequences are not shown.

How did the screen score LOC440855 (retired record) [SID442893451]?
robust z-score, replicate 1: 0.043; robust z-score, replicate 2: 0.0456; robust z-score, replicate 3: 0.0571; outcome: inactive

Which result is listed for JAK2 [SID442888354]?
robust z-score, replicate 1: 0.716; robust z-score, replicate 2: 0.439; robust z-score, replicate 3: 1.05; outcome: inactive

For PPIAP16 [SID442897250], what was measured?
robust z-score, replicate 1: -0.0749; robust z-score, replicate 2: -0.605; robust z-score, replicate 3: -0.413; outcome: inactive

With PIERCE2 [SID442891597], what was measured?
robust z-score, replicate 1: -0.206; robust z-score, replicate 2: -0.0401; robust z-score, replicate 3: 1.04; outcome: inactive

With KPNB1 [SID442886179], what was measured?
robust z-score, replicate 1: 0.673; robust z-score, replicate 2: 1.51; robust z-score, replicate 3: 1.54; outcome: inactive

Which result is listed for GATM [SID442885019]?
robust z-score, replicate 1: 2.32; robust z-score, replicate 2: 1.34; robust z-score, replicate 3: 1.51; outcome: inactive

For DTX3L [SID442900646], what was measured?
robust z-score, replicate 1: -0.809; robust z-score, replicate 2: -0.744; robust z-score, replicate 3: -0.809; outcome: inactive

What is on record for LINC01102 [SID442896608]?
robust z-score, replicate 1: -0.0961; robust z-score, replicate 2: -0.913; robust z-score, replicate 3: 0.133; outcome: inactive

With VPS52 [SID442885927], how do the results read?
robust z-score, replicate 1: 2.65; robust z-score, replicate 2: 0.429; robust z-score, replicate 3: 0.888; outcome: inactive

For MYL6 [SID442883995], how do the results read?
robust z-score, replicate 1: 2.27; robust z-score, replicate 2: 3.08; robust z-score, replicate 3: 0.892; outcome: active

With HOXB5 [SID442889105], how do the results read?
robust z-score, replicate 1: 0.333; robust z-score, replicate 2: 1.06; robust z-score, replicate 3: 0.442; outcome: inactive

Which result is listed for CATSPER4 [SID442898800]?
robust z-score, replicate 1: -0.793; robust z-score, replicate 2: -0.391; robust z-score, replicate 3: -0.433; outcome: inactive

What is on record for SYTL1 [SID442896451]?
robust z-score, replicate 1: -0.293; robust z-score, replicate 2: -0.18; robust z-score, replicate 3: -0.353; outcome: inactive

What is on record for GIT1 [SID442903398]?
robust z-score, replicate 1: -1.13; robust z-score, replicate 2: -1.95; robust z-score, replicate 3: -0.792; outcome: inactive

For SPINT2 [SID442899683], how do the results read?
robust z-score, replicate 1: 0.244; robust z-score, replicate 2: -0.999; robust z-score, replicate 3: -1.21; outcome: inactive

With TMEM236 [SID442896011], what does the deposit list?
robust z-score, replicate 1: -0.295; robust z-score, replicate 2: -0.391; robust z-score, replicate 3: -0.00295; outcome: inactive

With GDPGP1 [SID442904302], how do the results read?
robust z-score, replicate 1: -1.6; robust z-score, replicate 2: -1.73; robust z-score, replicate 3: -1.39; outcome: inactive

For YBX1 [SID442886879], what does the deposit list?
robust z-score, replicate 1: 1.18; robust z-score, replicate 2: 0.7; robust z-score, replicate 3: 1.24; outcome: inactive

How did the screen score B3GALT2 [SID442900938]?
robust z-score, replicate 1: -0.486; robust z-score, replicate 2: -1.15; robust z-score, replicate 3: -0.848; outcome: inactive

Which result is listed for ZFAND4 [SID442896053]?
robust z-score, replicate 1: -0.109; robust z-score, replicate 2: -0.234; robust z-score, replicate 3: -0.357; outcome: inactive

With FAS [SID442901886], how do the results read?
robust z-score, replicate 1: -0.503; robust z-score, replicate 2: -1.47; robust z-score, replicate 3: -0.958; outcome: inactive

Which result is listed for MRPS28 [SID442889765]?
robust z-score, replicate 1: 0.805; robust z-score, replicate 2: -0.822; robust z-score, replicate 3: 1.56; outcome: inactive

For GJA9 [SID442895560], what was measured?
robust z-score, replicate 1: -0.117; robust z-score, replicate 2: -0.229; robust z-score, replicate 3: -0.197; outcome: inactive

What is on record for VPS39 [SID442902263]?
robust z-score, replicate 1: -0.795; robust z-score, replicate 2: -1.72; robust z-score, replicate 3: -0.605; outcome: inactive

Ordered by “robust z-score, replicate 1” (lowest first): some entries from above
FAS [SID442901886]: robust z-score, replicate 1 = -0.503; robust z-score, replicate 2 = -1.47; robust z-score, replicate 3 = -0.958; outcome = inactive
ZFAND4 [SID442896053]: robust z-score, replicate 1 = -0.109; robust z-score, replicate 2 = -0.234; robust z-score, replicate 3 = -0.357; outcome = inactive
